Experiment [1] has as its target T1, GST-C-Opi1^WT (glutathione-S-transferase fused to Opi1 aa291-404) (S. cerevisiae) (UniProt P21957).
T1 sequence: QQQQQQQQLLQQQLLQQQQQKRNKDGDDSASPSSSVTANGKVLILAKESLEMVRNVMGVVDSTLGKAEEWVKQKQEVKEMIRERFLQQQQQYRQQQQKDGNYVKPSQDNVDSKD
The experiment is described as follows: pull-down; around 0.5 ug bait on amylose resin or glutathione-Sepharose with 1.5 ug prey of the alternate tag in 100 ul binding buffer (20 mM Tris-HCl pH 8, 150 mM NaCl, 1 mM EDTA, 1 mM DTT, 20% glycerol, 0.05% Triton X-100) with 50 ug/ml BSA, 2 h at 4 C; bait eluted with its ligand, prey detected by Western blot against MBP or GST; both purified. A general note: Immunoblotting shows a protein as a band on a membrane.

The target of experiment [2] is T2, GST-M-Opi1 (glutathione-S-transferase fused to Opi1 aa191-290) (S. cerevisiae) (UniProt P21957).
T2 sequence: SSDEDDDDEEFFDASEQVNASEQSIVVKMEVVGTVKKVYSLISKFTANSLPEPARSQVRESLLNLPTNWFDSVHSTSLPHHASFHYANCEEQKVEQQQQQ
Described as above.

Experiment [3] concerns the target T3, GST-N-Opi1^WT (glutathione-S-transferase fused to Opi1 aa1-190) (S. cerevisiae) (UniProt P21957).
T3 sequence: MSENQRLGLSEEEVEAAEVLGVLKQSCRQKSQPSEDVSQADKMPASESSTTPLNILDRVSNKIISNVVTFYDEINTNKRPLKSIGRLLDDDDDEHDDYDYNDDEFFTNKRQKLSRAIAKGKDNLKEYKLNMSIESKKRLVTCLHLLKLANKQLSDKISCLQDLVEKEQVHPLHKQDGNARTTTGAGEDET
Described as above.

Experiment [4] addresses T4, MBP-C-Opi1^WT (maltose-binding protein fused to Opi1 aa291-404) (S. cerevisiae) (UniProt P21957).
T4 sequence: T1 sequence
Described as above.

The target of experiment [5] is T5, MBP-N-Opi1^WT (maltose-binding protein fused to the N-terminal Opi1^1-190 polypeptide) (S. cerevisiae) (UniProt P21957).
T5 sequence: T3 sequence
The description is as above.

In experiment [6] the target is T6, MBP-N-Opi1^N150D (S. cerevisiae, UniProt P21957 1-190, N150D).
T6 construct: Opi1, S. cerevisiae, N terminus from aa1 to aa190 (N-Opi1) with N150D; pMAL-c expression vector; amplified from mutant OPI1 DNA template; source: for SEC further run on Superdex 200 Increase; not shown: MBP, N-terminal, kept
T6 sequence (looked up): T3 sequence with N150D
The experiment is described as follows: SEC; 0.5 mg of affinity-purified MBP fusion on Superdex 200 Increase 10/300 GL, 20 mM Tris-HCl pH 7.4, 150 mM NaCl, 0.5 ml/min; molecular weights estimated from calibration markers; both purified.

Where a chain is given by its changes, count along the chain named. Names may count otherwise. These are yes or no findings as the source states them, for the method shown. Sequences can lack the tags named with a protein.

B1: MBP-M-Opi1 (maltose-binding protein fused to Opi1 aa191-290) (domain or fragment, UniProt P21957 191-290)
chain: T2 sequence
On to B1, for which the binding result in experiment [1], in experiment [2] and in experiment [3] was “no binding (tested: 1.5 μg of prey protein in 100 μl)” throughout.

B2: GST-M-Opi1 (glutathione-S-transferase fused to Opi1 aa191-290) (domain or fragment, UniProt P21957 191-290)
chain: T2 sequence
As to B2, the binding result in experiment [4] and in experiment [5] was “no binding (tested: 1.5 μg of prey protein in 100 μl)” each time.

B3: MBP-N-Opi1^N150D (domain or fragment, UniProt P21957 1-190)
chain: T3 sequence with N150D
For B3, the binding entry in experiment [6] is reported as “no binding (tested: 0.5 mg loaded)”.

The values above are taken from article PMC10709064, “The leucine zipper domain of the transcriptional repressor Opi1 underlies a signal transduction mechanism regulating lipid synthesis” (The Journal of Biological Chemistry, 2023).
